These are yes or no findings as the source states them, for the method shown. In cells and extracts the contact can be indirect. Some binding calls cover weakened binding; strength is not graded here.
Key:
[1] = target: Poly (ADP-ribose) polymerase 1 (PARP1), endogenous in 143B cells (human (endogenous in 143B)) (UniProt P09874); experiment: co-IP; 143B cell lysate, co-IP with anti-PARP1 or control IgG antibodies, western blotting
[2] = target: Poly (ADP-ribose) polymerase 1 (PARP1), endogenous in 143B cells (human (endogenous in 143B)) (UniProt P09874); experiment: co-IP; immunoprecipitation from 143B cells transfected with flag-labeled full-length or truncated ezrin, western blotting; which partner was precipitated is not stated

Protein sequences, listed by entry. Tags and fused reporters are not part of them. Lines headed by an entry give the natural chain unless they say otherwise; changes in a name come on top.
UniProt P09874: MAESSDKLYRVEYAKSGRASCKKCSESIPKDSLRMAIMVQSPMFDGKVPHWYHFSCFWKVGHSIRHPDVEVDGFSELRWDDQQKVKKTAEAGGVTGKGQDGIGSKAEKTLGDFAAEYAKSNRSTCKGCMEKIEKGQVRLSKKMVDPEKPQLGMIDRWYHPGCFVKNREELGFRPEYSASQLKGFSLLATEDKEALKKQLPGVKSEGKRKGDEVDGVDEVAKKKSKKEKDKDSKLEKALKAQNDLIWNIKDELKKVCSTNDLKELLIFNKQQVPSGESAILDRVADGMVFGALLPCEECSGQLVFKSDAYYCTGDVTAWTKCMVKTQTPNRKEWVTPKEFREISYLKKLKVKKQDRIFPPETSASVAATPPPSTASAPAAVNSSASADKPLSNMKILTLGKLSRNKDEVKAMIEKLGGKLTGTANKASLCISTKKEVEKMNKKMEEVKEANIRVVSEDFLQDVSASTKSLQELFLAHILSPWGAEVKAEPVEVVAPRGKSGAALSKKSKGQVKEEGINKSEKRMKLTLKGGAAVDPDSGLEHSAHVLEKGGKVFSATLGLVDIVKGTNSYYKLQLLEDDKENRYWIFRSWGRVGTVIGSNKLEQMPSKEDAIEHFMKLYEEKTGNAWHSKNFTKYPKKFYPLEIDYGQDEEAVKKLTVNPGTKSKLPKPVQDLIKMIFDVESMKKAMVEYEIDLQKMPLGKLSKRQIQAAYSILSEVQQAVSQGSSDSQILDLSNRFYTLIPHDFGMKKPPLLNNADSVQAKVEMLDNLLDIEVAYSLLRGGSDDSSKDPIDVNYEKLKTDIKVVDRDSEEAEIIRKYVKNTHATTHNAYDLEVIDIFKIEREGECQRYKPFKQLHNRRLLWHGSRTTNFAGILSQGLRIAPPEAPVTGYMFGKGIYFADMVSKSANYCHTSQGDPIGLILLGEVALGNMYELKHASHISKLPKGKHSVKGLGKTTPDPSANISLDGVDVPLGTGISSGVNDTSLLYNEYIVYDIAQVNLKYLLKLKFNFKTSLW
UniProt P15311: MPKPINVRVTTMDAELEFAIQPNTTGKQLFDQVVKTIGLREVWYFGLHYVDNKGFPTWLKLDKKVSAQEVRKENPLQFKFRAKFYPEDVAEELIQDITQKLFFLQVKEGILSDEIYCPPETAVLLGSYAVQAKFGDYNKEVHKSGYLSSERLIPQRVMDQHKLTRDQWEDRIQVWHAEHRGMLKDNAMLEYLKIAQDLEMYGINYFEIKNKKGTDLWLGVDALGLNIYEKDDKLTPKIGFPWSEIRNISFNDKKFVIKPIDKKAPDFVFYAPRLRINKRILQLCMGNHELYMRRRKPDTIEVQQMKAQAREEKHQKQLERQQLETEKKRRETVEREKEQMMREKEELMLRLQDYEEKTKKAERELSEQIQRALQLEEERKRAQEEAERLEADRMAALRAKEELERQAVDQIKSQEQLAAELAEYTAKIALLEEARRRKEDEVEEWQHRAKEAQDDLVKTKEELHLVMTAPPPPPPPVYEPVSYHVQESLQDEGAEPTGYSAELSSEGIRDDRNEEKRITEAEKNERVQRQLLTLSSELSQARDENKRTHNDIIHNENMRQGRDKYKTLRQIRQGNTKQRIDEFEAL

Row | Substance | binding [1] | binding [2]
1 | Ezrin, endogenous in 143B cells (from UniProt P15311 1-586) | binds | 
2 | flag-labeled ezrin, full length 1-586aa (from UniProt P15311 1-586) |  | binds
3 | flag-labeled truncated ezrin 298-586aa (from UniProt P15311 298-586) (domain or fragment) |  | binds
